Results: article PMC9174887
Results are given in words; binding and its absence hold for the method and conditions named. Binding seen in cells or lysates may run through a third protein. Where a sequence is shown, tags or fusion partners need not be part of it.

Target: T1, HA-tagged VHH_(mASC) (JT-01-A09), expressed in HEK 293T cells (alpaca)
T1 sequence (VHH): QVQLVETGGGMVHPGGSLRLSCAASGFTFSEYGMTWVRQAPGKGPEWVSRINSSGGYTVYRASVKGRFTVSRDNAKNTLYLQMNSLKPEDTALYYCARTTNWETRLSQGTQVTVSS
Test: co-IP; LUMIER assay: lysates of co-transfected HEK 293T cells; HA-tagged VHH captured on plates coated with anti-HA.11, 4°C, 3 h; 50 mM Hepes pH 7.9, 150 mM NaCl, 2 mM EDTA, 0.5% Triton X-100, 5% glycerol; co-precipitated Renilla luciferase activity normalised to input

binding	Substance
no binding	pyrin domain of mouse NLRP3 fused to Renilla luciferase (domain or fragment)
no binding	pyrin domain of human ASC fused to Renilla luciferase (domain or fragment)
